Data published in publication PMC10579432.
No constants are given. Whether binding was seen depends on the method and setting. Binding seen in cells or lysates may run through a third protein.

The chains behind the UniProt entries cited, without tags or fusion partners.
UniProt Q6Q477: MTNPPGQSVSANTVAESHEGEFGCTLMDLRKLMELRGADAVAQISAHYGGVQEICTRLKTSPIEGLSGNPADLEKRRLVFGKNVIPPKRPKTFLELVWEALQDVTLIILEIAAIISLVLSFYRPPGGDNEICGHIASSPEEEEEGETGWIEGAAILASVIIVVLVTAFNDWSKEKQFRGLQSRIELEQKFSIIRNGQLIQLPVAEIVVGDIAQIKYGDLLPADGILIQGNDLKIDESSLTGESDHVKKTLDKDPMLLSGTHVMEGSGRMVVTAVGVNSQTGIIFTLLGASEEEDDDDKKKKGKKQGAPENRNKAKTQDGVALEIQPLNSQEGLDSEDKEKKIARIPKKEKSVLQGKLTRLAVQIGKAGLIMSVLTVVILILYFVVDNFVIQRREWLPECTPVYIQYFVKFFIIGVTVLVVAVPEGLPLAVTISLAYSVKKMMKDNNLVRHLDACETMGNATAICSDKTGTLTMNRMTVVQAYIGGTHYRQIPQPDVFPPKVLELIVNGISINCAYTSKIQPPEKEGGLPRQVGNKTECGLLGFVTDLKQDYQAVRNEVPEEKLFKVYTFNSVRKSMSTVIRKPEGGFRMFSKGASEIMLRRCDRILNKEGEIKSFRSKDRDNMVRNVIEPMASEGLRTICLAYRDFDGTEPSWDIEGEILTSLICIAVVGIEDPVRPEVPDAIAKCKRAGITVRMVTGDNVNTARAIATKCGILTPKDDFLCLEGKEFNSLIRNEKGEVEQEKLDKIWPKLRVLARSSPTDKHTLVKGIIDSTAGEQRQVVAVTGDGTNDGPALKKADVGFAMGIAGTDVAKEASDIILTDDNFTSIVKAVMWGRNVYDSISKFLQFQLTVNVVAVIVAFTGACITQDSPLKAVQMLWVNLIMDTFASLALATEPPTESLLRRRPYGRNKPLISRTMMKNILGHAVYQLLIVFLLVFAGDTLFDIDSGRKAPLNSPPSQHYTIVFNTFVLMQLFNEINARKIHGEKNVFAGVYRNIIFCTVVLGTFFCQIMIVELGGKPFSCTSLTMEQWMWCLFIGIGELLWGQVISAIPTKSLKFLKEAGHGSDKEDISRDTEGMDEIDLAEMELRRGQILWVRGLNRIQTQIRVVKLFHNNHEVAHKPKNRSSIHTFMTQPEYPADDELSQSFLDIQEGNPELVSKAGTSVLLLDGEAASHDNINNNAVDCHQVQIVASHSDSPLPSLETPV
UniProt Q0VF55: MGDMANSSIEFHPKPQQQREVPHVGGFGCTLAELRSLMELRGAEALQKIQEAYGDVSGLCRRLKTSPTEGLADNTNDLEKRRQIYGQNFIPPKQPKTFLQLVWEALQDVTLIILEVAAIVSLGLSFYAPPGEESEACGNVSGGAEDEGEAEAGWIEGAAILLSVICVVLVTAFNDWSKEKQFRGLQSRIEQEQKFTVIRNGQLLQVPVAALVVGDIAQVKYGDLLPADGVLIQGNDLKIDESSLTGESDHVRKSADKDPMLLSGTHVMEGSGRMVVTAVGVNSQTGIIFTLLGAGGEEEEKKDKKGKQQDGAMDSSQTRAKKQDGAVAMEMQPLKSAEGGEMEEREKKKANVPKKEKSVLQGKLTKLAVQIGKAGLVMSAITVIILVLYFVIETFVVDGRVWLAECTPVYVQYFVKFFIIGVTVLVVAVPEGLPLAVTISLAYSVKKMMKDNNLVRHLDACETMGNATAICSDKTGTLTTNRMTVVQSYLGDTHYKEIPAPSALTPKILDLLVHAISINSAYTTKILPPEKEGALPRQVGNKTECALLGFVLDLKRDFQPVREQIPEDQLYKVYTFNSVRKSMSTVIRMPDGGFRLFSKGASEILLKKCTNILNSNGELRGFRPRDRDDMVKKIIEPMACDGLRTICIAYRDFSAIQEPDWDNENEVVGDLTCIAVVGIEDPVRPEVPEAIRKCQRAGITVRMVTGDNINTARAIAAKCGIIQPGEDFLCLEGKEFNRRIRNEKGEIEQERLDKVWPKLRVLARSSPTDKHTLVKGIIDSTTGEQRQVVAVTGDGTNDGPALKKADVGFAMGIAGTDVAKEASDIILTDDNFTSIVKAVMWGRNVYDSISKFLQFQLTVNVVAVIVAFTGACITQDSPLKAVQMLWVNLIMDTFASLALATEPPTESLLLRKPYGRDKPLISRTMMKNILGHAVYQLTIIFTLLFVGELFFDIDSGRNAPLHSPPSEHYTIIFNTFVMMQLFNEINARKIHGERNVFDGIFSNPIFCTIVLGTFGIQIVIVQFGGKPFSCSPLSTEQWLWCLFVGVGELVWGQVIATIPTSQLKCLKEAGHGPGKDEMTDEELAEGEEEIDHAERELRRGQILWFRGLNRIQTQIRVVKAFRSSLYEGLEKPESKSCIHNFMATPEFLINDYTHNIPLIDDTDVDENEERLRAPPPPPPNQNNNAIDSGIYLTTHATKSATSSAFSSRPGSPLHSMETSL
UniProt Q9R0K7: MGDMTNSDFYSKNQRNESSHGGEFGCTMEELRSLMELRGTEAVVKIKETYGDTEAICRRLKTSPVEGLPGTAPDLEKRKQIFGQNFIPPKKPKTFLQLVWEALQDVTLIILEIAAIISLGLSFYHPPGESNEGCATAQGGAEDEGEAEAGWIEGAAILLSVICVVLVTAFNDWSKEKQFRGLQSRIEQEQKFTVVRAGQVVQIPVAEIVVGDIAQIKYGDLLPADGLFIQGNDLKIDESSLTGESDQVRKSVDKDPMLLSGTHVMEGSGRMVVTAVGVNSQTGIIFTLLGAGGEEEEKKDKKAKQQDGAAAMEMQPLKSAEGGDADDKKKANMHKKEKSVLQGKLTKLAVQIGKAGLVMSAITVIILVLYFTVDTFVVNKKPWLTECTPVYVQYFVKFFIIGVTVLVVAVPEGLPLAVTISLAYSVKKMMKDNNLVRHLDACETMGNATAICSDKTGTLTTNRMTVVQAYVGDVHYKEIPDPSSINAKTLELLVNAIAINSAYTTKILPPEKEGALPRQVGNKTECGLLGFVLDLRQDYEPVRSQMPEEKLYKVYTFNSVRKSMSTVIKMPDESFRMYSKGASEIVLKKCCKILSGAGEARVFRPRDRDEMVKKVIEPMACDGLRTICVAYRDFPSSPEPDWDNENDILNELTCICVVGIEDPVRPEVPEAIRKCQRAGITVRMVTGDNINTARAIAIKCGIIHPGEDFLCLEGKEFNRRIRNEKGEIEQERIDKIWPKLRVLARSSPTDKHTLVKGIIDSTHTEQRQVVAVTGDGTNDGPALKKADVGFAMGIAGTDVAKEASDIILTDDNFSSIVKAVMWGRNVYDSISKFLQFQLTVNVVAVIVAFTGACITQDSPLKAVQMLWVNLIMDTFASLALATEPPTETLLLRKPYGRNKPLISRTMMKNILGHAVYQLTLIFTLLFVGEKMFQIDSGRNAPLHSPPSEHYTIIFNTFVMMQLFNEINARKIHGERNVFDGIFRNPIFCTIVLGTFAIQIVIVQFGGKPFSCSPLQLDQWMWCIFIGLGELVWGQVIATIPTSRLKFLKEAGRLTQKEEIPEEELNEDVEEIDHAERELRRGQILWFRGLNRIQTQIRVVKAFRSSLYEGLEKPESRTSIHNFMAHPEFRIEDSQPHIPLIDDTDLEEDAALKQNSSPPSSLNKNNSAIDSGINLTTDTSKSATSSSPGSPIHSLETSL
UniProt G5E829: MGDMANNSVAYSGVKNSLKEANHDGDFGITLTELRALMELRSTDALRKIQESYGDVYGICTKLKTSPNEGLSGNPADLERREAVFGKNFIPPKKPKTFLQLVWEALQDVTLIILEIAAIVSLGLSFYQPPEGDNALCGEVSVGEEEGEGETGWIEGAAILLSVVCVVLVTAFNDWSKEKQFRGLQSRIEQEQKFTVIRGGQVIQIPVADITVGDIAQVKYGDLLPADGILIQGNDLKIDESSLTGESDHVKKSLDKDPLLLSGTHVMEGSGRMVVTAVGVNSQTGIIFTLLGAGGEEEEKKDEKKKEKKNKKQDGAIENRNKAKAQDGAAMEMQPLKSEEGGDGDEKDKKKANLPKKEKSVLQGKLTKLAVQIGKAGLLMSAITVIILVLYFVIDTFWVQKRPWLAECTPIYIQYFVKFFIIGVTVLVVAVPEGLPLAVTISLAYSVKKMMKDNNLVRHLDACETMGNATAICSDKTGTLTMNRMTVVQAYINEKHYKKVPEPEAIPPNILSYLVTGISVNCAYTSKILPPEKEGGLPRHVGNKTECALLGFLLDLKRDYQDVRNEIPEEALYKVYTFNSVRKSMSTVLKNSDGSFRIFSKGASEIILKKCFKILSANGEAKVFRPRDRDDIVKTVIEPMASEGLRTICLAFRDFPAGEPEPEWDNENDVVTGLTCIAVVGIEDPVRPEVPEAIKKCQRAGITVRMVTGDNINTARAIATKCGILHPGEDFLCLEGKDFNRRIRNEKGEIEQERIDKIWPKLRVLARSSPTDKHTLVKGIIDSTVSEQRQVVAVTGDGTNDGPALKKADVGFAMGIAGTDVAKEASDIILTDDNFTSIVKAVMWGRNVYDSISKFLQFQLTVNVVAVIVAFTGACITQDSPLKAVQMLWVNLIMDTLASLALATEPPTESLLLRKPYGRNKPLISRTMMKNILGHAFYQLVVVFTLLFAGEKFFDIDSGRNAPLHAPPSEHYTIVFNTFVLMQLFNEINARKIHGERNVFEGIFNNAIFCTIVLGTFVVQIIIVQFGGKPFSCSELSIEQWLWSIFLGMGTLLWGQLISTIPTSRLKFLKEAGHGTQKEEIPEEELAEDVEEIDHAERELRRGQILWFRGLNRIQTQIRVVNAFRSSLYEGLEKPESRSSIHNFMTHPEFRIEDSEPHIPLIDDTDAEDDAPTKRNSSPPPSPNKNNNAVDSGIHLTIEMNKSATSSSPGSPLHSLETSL

How the values were obtained:
Experiment in all cases: co-IP; pan-PMCA (5F10) antibody with Dynabeads Protein G; 10 cochleae (5 wild type C57BL/6N mice) pooled, NP-40 lysis buffer (150 mM NaCl, 50 mM Tris, 1% NP-40), 1 mg total protein, overnight at 4°C; blot with anti-Embigin G7.43.1 and anti-PMCA 5F10
[1] = target: plasma membrane calcium ATPase 4 (mouse (endogenous in cochlea)) (UniProt Q6Q477)
[2] = target: plasma membrane calcium ATPase 3 (mouse (endogenous in cochlea)) (UniProt Q0VF55)
[3] = target: plasma membrane calcium ATPase 2 (mouse (endogenous in cochlea)) (UniProt Q9R0K7)
[4] = target: plasma membrane calcium ATPase 1 (mouse (endogenous in cochlea)) (UniProt G5E829)

Measured: binding

B1: Embigin (protein, UniProt P21995 34-330)
chain: DPTDPTFTSLPVREEMMAKYSNLSLKSCNISVTEKSNVSVEENVILEKPSHVELKCVYTATKDLNLMNVTWKKDDEPLETTGDFNTTKMGNTLTSQYRFIVFNSKQLGKYSCVFGEKELRGTFNIHVPKAHGKKKSLIAYVGDSTVLKCVCQDCLPLNWTWYMGNETAQVPIDAHSNEKYIINGSHANETRLKIKHLLEEDGGSYWCRATFQLGESEEQNELVVLSFLVPLKPFLAILAEVILLVAIILLCEVYTHKKKNDPDAGKEFEQIEQLKSDDSNGIENNVPRYRKTDSADQ
no binding: all assays above
